According to paper PMC11079029, “Intramolecular autoinhibition regulates the selectivity of PRPF40A tandem WW domains for proline-rich motifs” (Nature Communications, 2024):
No constants are given. Whether binding was seen depends on the method and setting.

Legend:
Assay in all cases: ITC; MicroCal PEAQ-ITC, 25 °C, 20 mM sodium phosphate pH 6.5, 100 mM NaCl; PRPF40A constructs and GB1-tagged SF1 16-mer peptides; who was in the syringe is not stated for these panels (Fig. 2B, Fig. 5C); one-site model; both purified
[1] = biological target: T1, GB1-SF1(565-580) 16-mer peptide
T1 sequence: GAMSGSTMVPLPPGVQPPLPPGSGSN

[2] = biological target: T2, GB1-SF1(342-357) 16-mer peptide
T2 sequence: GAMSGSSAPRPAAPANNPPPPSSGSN

[3] = biological target: T3, GB1-SF1(387-402) 16-mer peptide
T3 sequence: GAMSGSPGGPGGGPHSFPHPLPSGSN

B1: PRPF40A N-ext-WW12 (residues 56-236) (domain or fragment, UniProt O75400 56-236)
chain: MGHPGMHYAPMGMHPMGQRANMPPVPHGMMPQMMPPMGGPPMGQMPGMMSSVMPGMMMSHMSQASMQPALPPGVNSMDVAAGTASGAKSMWTEHKSPDGRTYYYNTETKQSTWEKPDDLKTPAEQLLSKCPWKEYKSDSGKPYYYNSQTKESRWAKPKELEDLEGYQNTIVAGSLITKSNL
- binding [1]: no binding (tested: cell around 20–40 uM, syringe 200–500 uM)
- binding [2]: no binding (tested: cell around 20–40 uM, syringe 200–500 uM)
- binding [3]: no binding (tested: cell around 20–40 uM, syringe 200–500 uM)
